In doi:10.1101/2025.07.20.665556 one finds binding data, which are given here for 21 molecules.

Protein sequences, listed by entry. Tags and fused reporters are not part of them. Residues count along the entry.
UniProt P05067, residues 18-770: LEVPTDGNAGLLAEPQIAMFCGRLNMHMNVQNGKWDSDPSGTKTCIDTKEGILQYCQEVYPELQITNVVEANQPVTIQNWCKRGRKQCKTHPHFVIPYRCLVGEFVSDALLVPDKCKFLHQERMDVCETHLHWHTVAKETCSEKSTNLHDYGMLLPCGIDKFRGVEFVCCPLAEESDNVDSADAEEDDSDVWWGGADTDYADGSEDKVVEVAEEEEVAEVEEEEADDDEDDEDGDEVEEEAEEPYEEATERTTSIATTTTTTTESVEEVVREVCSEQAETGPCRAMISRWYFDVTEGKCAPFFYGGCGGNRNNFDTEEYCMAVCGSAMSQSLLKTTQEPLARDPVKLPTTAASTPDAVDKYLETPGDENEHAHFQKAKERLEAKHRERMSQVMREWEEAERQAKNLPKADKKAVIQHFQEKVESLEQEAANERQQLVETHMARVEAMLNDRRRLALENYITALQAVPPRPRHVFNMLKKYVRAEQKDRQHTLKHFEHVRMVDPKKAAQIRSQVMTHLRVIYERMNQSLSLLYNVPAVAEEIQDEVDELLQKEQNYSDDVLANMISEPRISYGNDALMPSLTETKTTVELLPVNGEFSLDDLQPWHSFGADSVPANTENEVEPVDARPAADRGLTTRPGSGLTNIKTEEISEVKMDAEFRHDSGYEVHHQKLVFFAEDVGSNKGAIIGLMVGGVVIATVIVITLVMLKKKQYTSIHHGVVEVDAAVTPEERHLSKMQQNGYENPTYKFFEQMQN
UniProt Q05639: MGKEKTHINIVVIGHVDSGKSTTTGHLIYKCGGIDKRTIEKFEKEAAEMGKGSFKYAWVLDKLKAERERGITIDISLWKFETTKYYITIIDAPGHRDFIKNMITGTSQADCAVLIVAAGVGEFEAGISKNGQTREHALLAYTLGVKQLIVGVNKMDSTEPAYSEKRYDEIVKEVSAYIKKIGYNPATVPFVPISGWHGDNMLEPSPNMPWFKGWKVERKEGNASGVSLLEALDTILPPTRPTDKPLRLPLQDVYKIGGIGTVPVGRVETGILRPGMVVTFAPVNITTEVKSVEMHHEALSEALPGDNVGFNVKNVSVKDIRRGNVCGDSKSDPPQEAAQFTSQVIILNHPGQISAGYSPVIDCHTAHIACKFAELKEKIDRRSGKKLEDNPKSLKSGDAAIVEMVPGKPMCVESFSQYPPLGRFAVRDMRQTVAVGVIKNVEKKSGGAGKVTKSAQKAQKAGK
UniProt P15531: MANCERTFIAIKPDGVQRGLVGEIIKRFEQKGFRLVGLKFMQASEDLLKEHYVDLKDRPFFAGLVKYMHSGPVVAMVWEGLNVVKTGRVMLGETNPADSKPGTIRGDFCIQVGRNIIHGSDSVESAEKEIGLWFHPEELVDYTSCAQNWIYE
UniProt P38919: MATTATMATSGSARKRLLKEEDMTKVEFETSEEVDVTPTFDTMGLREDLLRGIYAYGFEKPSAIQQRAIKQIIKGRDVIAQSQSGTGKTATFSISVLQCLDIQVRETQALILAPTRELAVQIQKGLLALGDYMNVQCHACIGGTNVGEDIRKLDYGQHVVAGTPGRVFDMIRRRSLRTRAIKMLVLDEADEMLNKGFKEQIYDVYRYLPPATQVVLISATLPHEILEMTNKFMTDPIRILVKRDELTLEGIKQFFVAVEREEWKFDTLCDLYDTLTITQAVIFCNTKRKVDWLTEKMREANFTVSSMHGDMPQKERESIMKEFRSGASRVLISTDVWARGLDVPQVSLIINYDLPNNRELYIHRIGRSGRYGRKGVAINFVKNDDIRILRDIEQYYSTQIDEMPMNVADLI
UniProt Q13283: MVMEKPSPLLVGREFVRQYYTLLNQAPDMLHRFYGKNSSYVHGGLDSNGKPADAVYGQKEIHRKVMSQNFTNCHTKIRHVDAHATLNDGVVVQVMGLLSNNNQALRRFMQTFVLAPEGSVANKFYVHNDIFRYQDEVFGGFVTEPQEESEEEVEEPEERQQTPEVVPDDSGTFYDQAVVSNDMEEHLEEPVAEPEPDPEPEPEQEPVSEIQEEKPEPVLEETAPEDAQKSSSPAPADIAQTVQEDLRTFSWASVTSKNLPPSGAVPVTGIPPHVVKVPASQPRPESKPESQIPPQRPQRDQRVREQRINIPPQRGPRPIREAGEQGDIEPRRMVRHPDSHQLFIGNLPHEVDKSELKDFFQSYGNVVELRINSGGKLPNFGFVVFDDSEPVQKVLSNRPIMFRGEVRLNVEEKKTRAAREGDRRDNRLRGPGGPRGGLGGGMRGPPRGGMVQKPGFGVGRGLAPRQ
UniProt Q9H0Q3, residues 19-95: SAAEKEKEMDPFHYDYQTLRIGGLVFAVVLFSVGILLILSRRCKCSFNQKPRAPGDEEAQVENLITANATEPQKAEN
UniProt P68366: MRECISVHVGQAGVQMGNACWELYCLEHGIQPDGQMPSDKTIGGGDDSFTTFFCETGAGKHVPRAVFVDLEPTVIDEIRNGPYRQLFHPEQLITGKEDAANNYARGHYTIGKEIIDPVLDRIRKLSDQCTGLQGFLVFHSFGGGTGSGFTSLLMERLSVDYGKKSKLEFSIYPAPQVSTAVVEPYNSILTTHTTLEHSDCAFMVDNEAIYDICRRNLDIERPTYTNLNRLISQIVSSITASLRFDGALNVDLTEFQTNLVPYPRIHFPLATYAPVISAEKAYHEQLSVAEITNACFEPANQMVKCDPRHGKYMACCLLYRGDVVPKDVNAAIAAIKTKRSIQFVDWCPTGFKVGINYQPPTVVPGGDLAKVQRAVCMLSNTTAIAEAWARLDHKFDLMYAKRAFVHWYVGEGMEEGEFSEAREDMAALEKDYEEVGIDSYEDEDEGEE
UniProt Q92841: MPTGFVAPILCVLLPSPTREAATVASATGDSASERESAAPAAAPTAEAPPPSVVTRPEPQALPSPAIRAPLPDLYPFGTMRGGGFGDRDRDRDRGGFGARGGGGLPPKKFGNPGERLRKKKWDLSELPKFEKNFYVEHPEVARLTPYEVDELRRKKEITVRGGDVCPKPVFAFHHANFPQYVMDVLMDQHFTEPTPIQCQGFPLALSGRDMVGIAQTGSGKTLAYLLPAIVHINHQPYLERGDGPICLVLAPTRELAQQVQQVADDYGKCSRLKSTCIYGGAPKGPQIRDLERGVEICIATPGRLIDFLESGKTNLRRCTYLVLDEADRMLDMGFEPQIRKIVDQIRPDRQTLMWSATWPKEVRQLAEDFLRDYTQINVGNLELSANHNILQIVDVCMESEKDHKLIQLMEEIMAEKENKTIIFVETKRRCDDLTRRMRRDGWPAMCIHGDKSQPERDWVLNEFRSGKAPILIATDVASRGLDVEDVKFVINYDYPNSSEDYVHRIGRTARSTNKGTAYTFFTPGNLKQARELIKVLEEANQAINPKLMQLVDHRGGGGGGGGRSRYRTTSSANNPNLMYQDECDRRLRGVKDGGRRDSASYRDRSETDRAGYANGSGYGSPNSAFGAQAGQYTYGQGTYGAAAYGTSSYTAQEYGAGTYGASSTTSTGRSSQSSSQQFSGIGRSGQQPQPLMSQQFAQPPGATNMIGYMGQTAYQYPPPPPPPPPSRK
UniProt P68363: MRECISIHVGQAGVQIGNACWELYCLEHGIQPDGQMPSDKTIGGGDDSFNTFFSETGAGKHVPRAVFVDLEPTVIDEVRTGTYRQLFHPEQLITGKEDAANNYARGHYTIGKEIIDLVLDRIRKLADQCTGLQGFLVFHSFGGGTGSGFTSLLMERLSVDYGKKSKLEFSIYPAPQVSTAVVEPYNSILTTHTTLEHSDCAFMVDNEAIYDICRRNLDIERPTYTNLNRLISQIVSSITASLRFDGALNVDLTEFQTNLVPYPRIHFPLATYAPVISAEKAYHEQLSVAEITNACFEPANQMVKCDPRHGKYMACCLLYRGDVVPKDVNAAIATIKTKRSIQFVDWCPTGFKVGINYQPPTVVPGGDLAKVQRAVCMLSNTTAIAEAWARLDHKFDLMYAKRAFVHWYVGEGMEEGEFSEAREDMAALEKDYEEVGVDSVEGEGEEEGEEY
UniProt P06396, residues 28-782: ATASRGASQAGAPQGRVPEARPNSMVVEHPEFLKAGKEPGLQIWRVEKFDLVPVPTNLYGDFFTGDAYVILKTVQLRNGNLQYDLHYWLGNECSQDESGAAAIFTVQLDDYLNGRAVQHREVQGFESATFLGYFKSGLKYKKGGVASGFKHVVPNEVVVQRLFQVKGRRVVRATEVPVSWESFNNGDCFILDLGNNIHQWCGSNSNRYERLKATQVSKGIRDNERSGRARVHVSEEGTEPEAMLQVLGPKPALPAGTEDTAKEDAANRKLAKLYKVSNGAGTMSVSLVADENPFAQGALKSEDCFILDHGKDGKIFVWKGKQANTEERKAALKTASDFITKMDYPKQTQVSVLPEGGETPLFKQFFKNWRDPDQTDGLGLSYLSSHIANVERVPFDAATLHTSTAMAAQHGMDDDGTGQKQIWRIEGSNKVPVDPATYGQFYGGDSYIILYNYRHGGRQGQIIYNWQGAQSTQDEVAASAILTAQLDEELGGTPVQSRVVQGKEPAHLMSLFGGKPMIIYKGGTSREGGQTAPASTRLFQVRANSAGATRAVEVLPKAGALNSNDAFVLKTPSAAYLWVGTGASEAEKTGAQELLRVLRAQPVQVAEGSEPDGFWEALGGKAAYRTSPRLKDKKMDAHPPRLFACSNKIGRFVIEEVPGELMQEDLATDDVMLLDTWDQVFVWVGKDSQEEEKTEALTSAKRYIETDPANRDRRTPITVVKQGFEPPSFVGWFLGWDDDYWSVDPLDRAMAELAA
UniProt P11940: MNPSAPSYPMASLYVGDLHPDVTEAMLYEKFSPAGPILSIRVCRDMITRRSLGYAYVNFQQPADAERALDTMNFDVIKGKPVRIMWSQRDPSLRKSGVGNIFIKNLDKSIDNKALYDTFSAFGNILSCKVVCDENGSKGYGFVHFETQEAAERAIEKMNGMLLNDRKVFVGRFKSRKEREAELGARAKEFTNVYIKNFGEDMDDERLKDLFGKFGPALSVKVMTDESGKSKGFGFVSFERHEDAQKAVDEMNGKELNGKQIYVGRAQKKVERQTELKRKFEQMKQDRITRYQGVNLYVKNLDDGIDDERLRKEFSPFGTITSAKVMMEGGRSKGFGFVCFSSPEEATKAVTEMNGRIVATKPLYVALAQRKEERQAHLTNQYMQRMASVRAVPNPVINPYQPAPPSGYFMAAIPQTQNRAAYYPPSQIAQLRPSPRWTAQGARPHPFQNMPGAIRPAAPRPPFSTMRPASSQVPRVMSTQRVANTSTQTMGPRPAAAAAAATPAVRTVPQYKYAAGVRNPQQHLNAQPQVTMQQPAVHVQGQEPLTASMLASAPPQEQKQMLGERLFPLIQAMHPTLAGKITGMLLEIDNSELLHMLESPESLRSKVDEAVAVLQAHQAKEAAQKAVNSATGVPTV
UniProt P55010: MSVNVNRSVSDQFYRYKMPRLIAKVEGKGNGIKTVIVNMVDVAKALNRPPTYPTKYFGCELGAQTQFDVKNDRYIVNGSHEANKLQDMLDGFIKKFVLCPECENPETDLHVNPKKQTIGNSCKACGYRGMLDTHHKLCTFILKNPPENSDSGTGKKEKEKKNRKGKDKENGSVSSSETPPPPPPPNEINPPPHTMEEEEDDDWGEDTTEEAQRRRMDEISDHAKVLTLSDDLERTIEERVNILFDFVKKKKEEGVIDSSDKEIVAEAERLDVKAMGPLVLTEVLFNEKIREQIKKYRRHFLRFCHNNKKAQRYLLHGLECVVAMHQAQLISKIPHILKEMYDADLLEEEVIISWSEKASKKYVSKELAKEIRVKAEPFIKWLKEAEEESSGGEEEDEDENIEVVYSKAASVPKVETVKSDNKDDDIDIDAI
UniProt P67809: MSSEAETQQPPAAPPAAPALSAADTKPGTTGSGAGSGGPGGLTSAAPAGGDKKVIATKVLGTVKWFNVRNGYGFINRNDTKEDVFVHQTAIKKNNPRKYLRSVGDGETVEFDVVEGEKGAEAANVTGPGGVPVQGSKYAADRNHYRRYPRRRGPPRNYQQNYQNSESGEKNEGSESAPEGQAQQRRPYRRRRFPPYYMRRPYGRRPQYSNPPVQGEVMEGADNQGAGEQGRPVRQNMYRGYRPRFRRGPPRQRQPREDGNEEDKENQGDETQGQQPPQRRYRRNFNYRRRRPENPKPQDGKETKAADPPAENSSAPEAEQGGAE
UniProt Q99729: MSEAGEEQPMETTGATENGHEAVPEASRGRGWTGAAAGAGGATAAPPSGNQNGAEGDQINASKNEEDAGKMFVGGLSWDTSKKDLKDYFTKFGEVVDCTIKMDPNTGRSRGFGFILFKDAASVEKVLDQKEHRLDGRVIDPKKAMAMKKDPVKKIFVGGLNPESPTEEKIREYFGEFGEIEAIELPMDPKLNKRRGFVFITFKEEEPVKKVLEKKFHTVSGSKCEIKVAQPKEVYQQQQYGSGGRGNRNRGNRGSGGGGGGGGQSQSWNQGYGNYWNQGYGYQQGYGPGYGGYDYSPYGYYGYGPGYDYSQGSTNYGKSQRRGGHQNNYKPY

The target of this experiment is T1, TIA-1 related protein (TIA-R) (human (endogenous in frontal cortex tissue)) (UniProt Q01085).
T1 sequence: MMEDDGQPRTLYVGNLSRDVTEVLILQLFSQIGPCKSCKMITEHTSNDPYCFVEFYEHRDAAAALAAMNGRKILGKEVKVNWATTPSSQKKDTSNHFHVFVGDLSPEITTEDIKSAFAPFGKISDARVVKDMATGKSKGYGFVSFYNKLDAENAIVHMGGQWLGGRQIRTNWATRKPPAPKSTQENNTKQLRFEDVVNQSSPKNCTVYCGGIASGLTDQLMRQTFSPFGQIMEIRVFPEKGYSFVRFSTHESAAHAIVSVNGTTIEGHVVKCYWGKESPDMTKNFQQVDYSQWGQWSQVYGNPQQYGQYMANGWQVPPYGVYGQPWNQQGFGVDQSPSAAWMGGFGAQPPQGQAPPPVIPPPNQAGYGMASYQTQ
Kind of experiment: affinity purification with mass spectrometry.

These are yes or no findings as the source states them, for the method shown. In cells and extracts the contact can be indirect. A yes stands for co-enrichment or nearness to the bait. Other partners may have been found.

With APP (from UniProt P05067), the binding entry is listed as “binds”.

On to EEF1A2 (from UniProt Q05639 1-463), for which the binding entry is given as “binds”.

In the case of DGKI (from UniProt O75912 1-1057), the binding result is reported as “binds”.

Take NME1 (from UniProt P15531 1-152): the binding entry is listed as “binds”.

For the molecule EIF4A3 (from UniProt P38919 1-411), the binding result was “binds”.

For “RasGAP SH3-domain binding protein 1 (G3BP1) (from UniProt Q13283 1-466)”, the binding entry is “binds”.

With FXYD6 (from UniProt Q9H0Q3 19-95), the binding result is recorded as “binds”.

Consider TUBA4A (from UniProt P68366 1-448), for which the binding entry was “binds”.

DDX17 (from UniProt Q92841 1-729): the binding result is recorded as “binds”.

Turning to RBBP9 (from UniProt O75884 1-186), the binding result is recorded as “binds”.

For the molecule TUBA1B (from UniProt P68363 1-451), the binding entry is “binds”.

Turning to GSN (from UniProt P06396 28-782), the binding entry is recorded as “binds”.

For the molecule PABPC1 (from UniProt P11940 1-636), the binding entry was “binds”.

Turning to EIF5 (from UniProt P55010 1-431), the binding entry was “binds”.

For ZFHX4 (from UniProt Q86UP3 1-3567), the binding entry is “binds”.

Turning to YBX1 (from UniProt P67809 1-324), the binding result is reported as “binds”.

Consider HNRNPAB (from UniProt Q99729 1-332), for which the binding result is recorded as “binds”.

B1: PRR4 (protein, UniProt Q16378 17-134)
chain: QSTDNDVNYEDFTFTIPDVEDSSQRPDQGPQRPPPEGLLPRPPGDSGNQDDGPQQRPPKPGGHHRHPPPPPFQNQQRPPRRGHRQLSLPRFPSVSLQEASSFFQRDRPARHPQEQPLW
Take B1: the binding result was “binds”.

B2: T-cell restricted intracellular antigen 1 (TIA-1) (protein, UniProt P31483 1-386)
chain: MEDEMPKTLYVGNLSRDVTEALILQLFSQIGPCKNCKMIMDTAGNDPYCFVEFHEHRHAAAALAAMNGRKIMGKEVKVNWATTPSSQKKDTSSSTVVSTQRSQDHFHVFVGDLSPEITTEDIKAAFAPFGRISDARVVKDMATGKSKGYGFVSFFNKWDAENAIQQMGGQWLGGRQIRTNWATRKPPAPKSTYESNTKQLSYDEVVNQSSPSNCTVYCGGVTSGLTEQLMRQTFSPFGQIMEIRVFPDKGYSFVRFNSHESAAHAIVSVNGTTIEGHVVKCYWGKETLDMINPVQQQNQIGYPQPYGQWGQWYGNAQQIGQYMPNGWQVPAYGMYGQAWNQQGFNQTQSSAPWMGPNYGVQPPQGQNGSMLPNQPSGYRVAGYETQ
As to B2, the binding entry is “binds”.

B3: ANXA6 (protein, UniProt P08133 1-673)
chain: MAKPAQGAKYRGSIHDFPGFDPNQDAEALYTAMKGFGSDKEAILDIITSRSNRQRQEVCQSYKSLYGKDLIADLKYELTGKFERLIVGLMRPPAYCDAKEIKDAISGIGTDEKCLIEILASRTNEQMHQLVAAYKDAYERDLEADIIGDTSGHFQKMLVVLLQGTREEDDVVSEDLVQQDVQDLYEAGELKWGTDEAQFIYILGNRSKQHLRLVFDEYLKTTGKPIEASIRGELSGDFEKLMLAVVKCIRSTPEYFAERLFKAMKGLGTRDNTLIRIMVSRSELDMLDIREIFRTKYEKSLYSMIKNDTSGEYKKTLLKLSGGDDDAAGQFFPEAAQVAYQMWELSAVARVELKGTVRPANDFNPDADAKALRKAMKGLGTDEDTIIDIITHRSNVQRQQIRQTFKSHFGRDLMTDLKSEISGDLARLILGLMMPPAHYDAKQLKKAMEGAGTDEKALIEILATRTNAEIRAINEAYKEDYHKSLEDALSSDTSGHFRRILISLATGHREEGGENLDQAREDAQVAAEILEIADTPSGDKTSLETRFMTILCTRSYPHLRRVFQEFIKMTNYDVEHTIKKEMSGDVRDAFVAIVQSVKNKPLFFADKLYKSMKGAGTDEKTLTRIMVSRSEIDLLNIRREFIEKYDKSLHQAIEGDTSGDFLKALLALCGGED
For the molecule B3, the binding entry is “binds”.

B4: PLA2G2A (protein, UniProt P14555 21-144)
chain: NLVNFHRMIKLTTGKEAALSYGFYGCHCGVGGRGSPKDATDRCCVTHDCCYKRLEKRGCGTKFLSYKFSNSGSRITCAKQDSCRSQLCECDKAAATCFARNKTTYNKKYQYYSNKHCRGSTPRC
As to B4, the binding result is “binds”.
